Assay results from paper PMC9067535.
No constants are given. Whether binding was seen depends on the method and setting. In cells and extracts the contact can be indirect. A yes stands for co-enrichment or nearness to the bait. Other partners may have been found.

Target: 3XFlag-CFIm25 (human) (UniProt O43809)
Experiment: affinity purification with mass spectrometry; Anti-Flag Affinity Gel on lysates of H9 hESCs stably overexpressing Flag-tag CFIm25 or negative control; 4°C, 3 h; washes 30 mM Tris-Cl pH 7.4, 150 mM NaCl, 0.5% Triton X-100; elution with Poly FLAG peptide; no ribonuclease

binding: binds
B1: CFIm59 (protein, UniProt Q8N684 1-471)
chain: MSEGVDLIDIYADEEFNQDPEFNNTDQIDLYDDVLTATSQPSDDRSSSTEPPPPVRQEPSPKPNNKTPAILYTYSGLRNRRAAVYVGSFSWWTTDQQLIQVIRSIGVYDVVELKFAENRANGQSKGYAEVVVASENSVHKLLELLPGKVLNGEKVDVRPATRQNLSQFEAQARKRECVRVPRGGIPPRAHSRDSSDSADGRATPSENLVPSSARVDKPPSVLPYFNRPPSALPLMGLPPPPIPPPPPLSSSFGVPPPPPGIHYQHLMPPPPRLPPHLAVPPPGAIPPALHLNPAFFPPPNATVGPPPDTYMKASAPYNHHGSRDSGPPPSTVSEAEFEDIMKRNRAISSSAISKAVSGASAGDYSDAIETLLTAIAVIKQSRVANDERCRVLISSLKDCLHGIEAKSYSVGASGSSSRKRHRSRERSPSRSRESSRRHRDLLHNEDRHDDYFQERNREHERHRDRERDRHH
